Source: US20240174768A1
No constants are given. Whether binding was seen depends on the method and setting. Some entries that bind do so weakly or less than the wild type. Tags and fused reporters may be left off the sequences shown.

Target: NKG2D-based chimeric activating receptor NKAR (human)
Experiment: flow cytometry, His-tagged sMICA on NKAR-NK-92 cells, anti-His-tag detection

binding: binds
B1: recombinant His-tagged human MICA (ligand, UniProt Q29983 24-307, looked up, not shown: small tags and cut ends)
chain: EPHSLRYNLTVLSWDGSVQSGFLTEVHLDGQPFLRCDRQKCRAKPQGQWAEDVLGNKTWDRETRDLTGNGKDLRMTLAHIKDQKEGLHSLQEIRVCEIHEDNSTRSSQHFYYDGELFLSQNLETKEWTMPQSSRAQTLAMNVRNFLKEDAMKTKTHYHAMHADCLQELRRYLKSGVVLRRTVPPMVNVTRSEASEGNITVTCRASGFYPWNITLSWRQDGVSLSHDTQQWGDVLPDGNGTYQTWVATRICQGEEQRFTCYMEHSGNHSTHPVPSGKVLVLQSHW
